Results taken from the supplement of paper PMC6411743.
± gives the standard deviation of the averaged measurements. This is a selection; strong and weak results do not stand in their true shares.

Assays:
Experiment in all cases: NP40-soluble protein abundance relative to vehicle (solubility fold change) (ratio); higher = more soluble protein in presence of AMP-PNP
UniProt Q8TB72-3 = target: T1, UniProt Q8TB72-3
T1 sequence (whole entry): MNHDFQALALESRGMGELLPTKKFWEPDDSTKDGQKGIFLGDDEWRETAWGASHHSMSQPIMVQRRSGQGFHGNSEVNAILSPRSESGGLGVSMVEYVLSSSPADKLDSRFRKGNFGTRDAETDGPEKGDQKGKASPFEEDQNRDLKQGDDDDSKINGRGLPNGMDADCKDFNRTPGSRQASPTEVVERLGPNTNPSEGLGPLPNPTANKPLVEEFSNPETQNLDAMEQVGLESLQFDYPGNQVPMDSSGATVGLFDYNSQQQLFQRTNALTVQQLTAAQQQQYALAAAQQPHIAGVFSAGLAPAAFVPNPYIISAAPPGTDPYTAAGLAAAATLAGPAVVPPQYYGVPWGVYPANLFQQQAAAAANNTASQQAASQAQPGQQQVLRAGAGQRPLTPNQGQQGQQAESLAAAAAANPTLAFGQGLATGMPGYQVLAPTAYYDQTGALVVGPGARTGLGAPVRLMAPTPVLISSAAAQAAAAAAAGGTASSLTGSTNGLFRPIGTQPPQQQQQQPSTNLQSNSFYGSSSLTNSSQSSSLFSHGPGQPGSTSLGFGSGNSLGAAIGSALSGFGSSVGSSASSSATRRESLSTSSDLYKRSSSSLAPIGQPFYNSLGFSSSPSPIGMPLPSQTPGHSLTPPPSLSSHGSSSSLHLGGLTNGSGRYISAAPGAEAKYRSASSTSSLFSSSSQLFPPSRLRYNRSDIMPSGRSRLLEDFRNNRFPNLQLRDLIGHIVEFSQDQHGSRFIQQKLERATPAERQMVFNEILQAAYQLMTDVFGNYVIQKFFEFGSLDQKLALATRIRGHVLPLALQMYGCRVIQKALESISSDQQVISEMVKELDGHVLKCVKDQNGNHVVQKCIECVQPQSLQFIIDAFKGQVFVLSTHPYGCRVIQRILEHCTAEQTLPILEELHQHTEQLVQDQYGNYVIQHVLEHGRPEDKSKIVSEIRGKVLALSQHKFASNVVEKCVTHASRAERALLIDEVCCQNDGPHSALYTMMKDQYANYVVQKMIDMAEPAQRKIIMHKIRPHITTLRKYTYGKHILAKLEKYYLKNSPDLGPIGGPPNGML
Outline: (§1)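 Jurkat crude lysate prepared with a Dounce homogeniser was treated at eight concentrations spanning 0.1 to 10 mM, 10 min at room temperature then 3 min at 37 °C. Solubilisation with 0.8% NP40 and benzonase and ultracentrifugation preceded TMT labelling of the supernatant for LC-MS/MS. Fold change against the detergent-processed vehicle was determined per replicate from vsn-normalised intensities, across three independent experiments.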

[1] = target: T2, UniProt Q8TBA6 and related entries
T2 sequence (whole entry): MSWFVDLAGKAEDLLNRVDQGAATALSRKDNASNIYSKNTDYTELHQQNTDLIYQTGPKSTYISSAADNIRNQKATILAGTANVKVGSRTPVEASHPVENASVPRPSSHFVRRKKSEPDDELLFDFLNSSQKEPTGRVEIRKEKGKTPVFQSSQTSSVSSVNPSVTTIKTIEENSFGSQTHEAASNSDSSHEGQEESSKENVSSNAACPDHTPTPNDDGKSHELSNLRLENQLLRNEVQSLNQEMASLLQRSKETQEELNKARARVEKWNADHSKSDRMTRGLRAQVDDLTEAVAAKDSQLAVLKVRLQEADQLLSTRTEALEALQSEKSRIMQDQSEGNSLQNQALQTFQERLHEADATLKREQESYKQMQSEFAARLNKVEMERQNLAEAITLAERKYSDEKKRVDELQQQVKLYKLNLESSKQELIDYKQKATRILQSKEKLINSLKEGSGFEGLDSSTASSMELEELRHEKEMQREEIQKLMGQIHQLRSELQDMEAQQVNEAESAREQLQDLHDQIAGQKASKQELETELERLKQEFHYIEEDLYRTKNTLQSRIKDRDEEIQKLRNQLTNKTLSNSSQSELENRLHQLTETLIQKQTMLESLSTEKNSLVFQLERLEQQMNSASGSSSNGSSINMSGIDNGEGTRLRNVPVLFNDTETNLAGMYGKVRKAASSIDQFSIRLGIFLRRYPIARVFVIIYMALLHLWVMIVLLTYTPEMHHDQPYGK
Outline: as §1

[2] = target: T3, UniProt Q8TD55 and related entries
T3 sequence (whole entry): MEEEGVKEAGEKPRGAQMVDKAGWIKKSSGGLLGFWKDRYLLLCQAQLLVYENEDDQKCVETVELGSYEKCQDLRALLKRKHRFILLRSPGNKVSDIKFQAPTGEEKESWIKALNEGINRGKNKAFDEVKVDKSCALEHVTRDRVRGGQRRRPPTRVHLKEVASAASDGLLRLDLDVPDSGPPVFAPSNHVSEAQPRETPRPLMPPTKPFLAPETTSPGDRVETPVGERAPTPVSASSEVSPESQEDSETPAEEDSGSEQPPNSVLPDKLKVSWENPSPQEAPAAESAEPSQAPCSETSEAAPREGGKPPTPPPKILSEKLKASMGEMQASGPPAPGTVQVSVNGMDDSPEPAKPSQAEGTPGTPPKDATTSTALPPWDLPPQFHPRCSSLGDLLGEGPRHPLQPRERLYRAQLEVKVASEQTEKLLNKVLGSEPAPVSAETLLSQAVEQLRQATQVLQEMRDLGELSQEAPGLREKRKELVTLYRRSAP
Outline: as §1

[3] = target: T4, UniProt Q8WX93 and related entries; details: concentration: 1mM
T4 sequence (whole entry): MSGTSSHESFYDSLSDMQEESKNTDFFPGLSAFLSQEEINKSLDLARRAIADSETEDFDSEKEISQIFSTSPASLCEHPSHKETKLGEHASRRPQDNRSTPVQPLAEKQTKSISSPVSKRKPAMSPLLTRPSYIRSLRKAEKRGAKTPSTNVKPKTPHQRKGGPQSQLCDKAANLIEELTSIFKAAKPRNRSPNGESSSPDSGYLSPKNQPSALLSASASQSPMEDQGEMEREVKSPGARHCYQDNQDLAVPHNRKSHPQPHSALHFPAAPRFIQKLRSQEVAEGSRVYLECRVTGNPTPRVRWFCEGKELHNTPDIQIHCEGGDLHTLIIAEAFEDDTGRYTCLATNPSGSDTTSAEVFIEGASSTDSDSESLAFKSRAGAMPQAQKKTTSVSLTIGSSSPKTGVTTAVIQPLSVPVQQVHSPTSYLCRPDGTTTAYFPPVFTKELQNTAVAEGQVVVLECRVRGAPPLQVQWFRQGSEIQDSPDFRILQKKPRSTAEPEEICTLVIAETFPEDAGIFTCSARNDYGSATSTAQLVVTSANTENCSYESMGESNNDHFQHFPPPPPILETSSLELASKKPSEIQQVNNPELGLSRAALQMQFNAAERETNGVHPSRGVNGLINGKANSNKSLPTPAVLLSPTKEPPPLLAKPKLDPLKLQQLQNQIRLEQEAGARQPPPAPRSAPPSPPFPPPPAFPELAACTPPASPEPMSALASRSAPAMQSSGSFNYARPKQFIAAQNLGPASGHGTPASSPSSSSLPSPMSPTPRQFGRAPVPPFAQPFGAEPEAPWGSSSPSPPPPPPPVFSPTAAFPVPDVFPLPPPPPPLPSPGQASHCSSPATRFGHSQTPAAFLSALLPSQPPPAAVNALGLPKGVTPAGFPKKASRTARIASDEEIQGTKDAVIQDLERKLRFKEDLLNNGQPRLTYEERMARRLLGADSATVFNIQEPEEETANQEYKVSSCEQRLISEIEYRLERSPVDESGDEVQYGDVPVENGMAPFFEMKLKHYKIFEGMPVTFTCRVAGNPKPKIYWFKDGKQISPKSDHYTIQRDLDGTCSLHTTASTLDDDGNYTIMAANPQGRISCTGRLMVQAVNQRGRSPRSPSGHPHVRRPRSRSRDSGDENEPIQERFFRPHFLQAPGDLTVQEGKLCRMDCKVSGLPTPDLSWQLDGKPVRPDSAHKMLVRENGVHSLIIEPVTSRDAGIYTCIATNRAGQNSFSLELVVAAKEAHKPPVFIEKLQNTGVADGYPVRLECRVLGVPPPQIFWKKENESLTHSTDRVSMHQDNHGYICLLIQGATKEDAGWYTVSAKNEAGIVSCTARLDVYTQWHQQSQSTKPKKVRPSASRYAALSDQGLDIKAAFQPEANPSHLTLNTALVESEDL
Outline: as §1

## Nc1ncnc2c1ncn2[C@@H]1O[C@H](COP(=O)(O)OP(=O)(O)NP(=O)(O)O)[C@@H](O)[C@H]1O [adenylyl imidodiphosphate]
UniProt Q8TB72-3; concentration: 4mM
  NP40-soluble protein abundance: 1.01 ± 0.058
UniProt Q8TB72-3; concentration: 6mM
  NP40-soluble protein abundance: 0.993 ± 0.03
UniProt Q8TB72-3; concentration: 8mM
  NP40-soluble protein abundance: 0.965 ± 0.035
UniProt Q8TB72-3; concentration: 10mM
  NP40-soluble protein abundance: 1.02 ± 0.071
[1]; concentration: 1mM
  NP40-soluble protein abundance: 1.007 ± 0.0093
[1]; concentration: 2mM
  NP40-soluble protein abundance: 1.06 ± 0.071
[1]; concentration: 4mM
  NP40-soluble protein abundance: 1.02 ± 0.021
[1]; concentration: 6mM
  NP40-soluble protein abundance: 1.001 ± 0.0074
[1]; concentration: 8mM
  NP40-soluble protein abundance: 0.953 ± 0.025
[1]; concentration: 10mM
  NP40-soluble protein abundance: 0.976 ± 0.017
[2]; concentration: 1mM
  NP40-soluble protein abundance: 1.008 ± 0.0066
[2]; concentration: 2mM
  NP40-soluble protein abundance: 1.06 ± 0.059
[2]; concentration: 4mM
  NP40-soluble protein abundance: 0.9964 ± 0.0068
[2]; concentration: 6mM
  NP40-soluble protein abundance: 0.983 ± 0.013
[2]; concentration: 8mM
  NP40-soluble protein abundance: 0.973 ± 0.013
[2]; concentration: 10mM
  NP40-soluble protein abundance: 0.989 ± 0.023
[3]
  NP40-soluble protein abundance: 1.045 ± 0.0064
